The text below walks through data of patent US20140038920A1, “TFEB PHOSPHORYLATION INHIBITORS AND USES THEREOF” (FONDAZIONE TELETHON, priority 2011, published 2014).

The assay has as its system TFEB. Put plainly: High content TFEB-GFP nuclear translocation assay. The format is cell-based. The conditions noted are these: read-out: Average EC50. As for the experimental part:
Immunoblotting of protein extracts isolated from HeLa cells treated overnight, as indicated. Membranes were probed with antibodies for p-T202/Y204-ERK1/2, ERK1/2, p-T389-S6K, and S6K to measure ERK and mTORC1 activities. […] FLAG immunoblotting of cytosolic and nuclear fractions isolated from TFEB-3×FLAG HeLa cells cultured in amino acid-free media and subsequently stimulated as indicated for at least 3 h. Correct subcellular fractionation was verified with H3 and tubulin antibodies. […] The EC50 for each compound was calculated using Prism software (see Materials and Methods for details). […] TFEB localization was detected with a FLAG antibody, whereas tubulin and H3 were used as controls for the cytosolic and nuclear fraction, respectively; levels of S6K phosphorylation were used to test RagC and RagD knockdown efficiency.
After 3 hours at 37° C. in RPMI medium cells were washed, fixed, and stained with DAPI. […] The script calculates the ratio value resulting from the average intensity of nuclear TFEB-GFP fluorescence divided by the average of the cytosolic intensity of TFEB-GFP fluorescence. […] The EC50 for each compound was calculated using non-linear regression fitting (Prism software). […]

Counter-ions that a name gives are not always drawn. Like-named read-outs stand apart in the source and are kept apart here.

`C[S+]([O-])c1ccc(-c2nc(-c3ccc(F)cc3)c(-c3ccncc3)[nH]2)cc1` (centres unmarked) [SB203580]: where the note is “Homo sapiens, HeLa, 3 h”, the EC50 was 7 to 15 µM.

On to `Cc1ccc(NC(=O)c2ccc(CN3CCN(C)CC3)cc2)cc1Nc1nccc(-c2cccnc2)n1` [Imatinib Mesylate STI571, Imatinib Mesylate], for which the EC50 (mobilization of cytosolic TFEB to the nucleus, TFEB-GFP HeLa cells, 3 h at 37° C. in RPMI, ten concentrations 50 μM to 2.54 nM, 4 runs) is less than 7 µM.
